Reference: PMC7790283
Results are given in words; binding and its absence hold for the method and conditions named. In cells and extracts the contact can be indirect. Some binding calls cover weakened binding; strength is not graded here.

T1: CCCTC-binding factor (CTCF) (human (endogenous in HMECs)) (UniProt P49711)
T1 sequence: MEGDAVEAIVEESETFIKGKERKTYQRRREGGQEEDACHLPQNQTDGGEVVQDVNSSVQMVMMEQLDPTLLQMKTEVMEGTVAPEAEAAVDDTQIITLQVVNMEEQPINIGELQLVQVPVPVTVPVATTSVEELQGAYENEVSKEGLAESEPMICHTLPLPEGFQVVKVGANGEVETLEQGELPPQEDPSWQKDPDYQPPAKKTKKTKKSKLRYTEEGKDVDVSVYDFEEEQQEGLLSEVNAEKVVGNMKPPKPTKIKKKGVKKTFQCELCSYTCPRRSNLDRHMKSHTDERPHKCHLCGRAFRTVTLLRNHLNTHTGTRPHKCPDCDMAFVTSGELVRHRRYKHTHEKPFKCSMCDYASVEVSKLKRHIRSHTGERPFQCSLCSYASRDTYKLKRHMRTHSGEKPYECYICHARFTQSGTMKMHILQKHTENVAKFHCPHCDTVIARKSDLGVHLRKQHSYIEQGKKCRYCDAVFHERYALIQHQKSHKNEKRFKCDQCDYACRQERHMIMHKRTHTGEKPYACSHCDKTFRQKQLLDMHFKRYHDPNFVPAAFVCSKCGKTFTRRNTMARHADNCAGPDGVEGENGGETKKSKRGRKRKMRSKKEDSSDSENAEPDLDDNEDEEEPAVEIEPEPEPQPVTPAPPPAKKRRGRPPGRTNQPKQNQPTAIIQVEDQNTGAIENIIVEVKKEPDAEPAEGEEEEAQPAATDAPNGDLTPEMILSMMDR

B1: Serine/arginine-rich splicing factor SC-35 (protein, UniProt Q01130 1-221)
chain: MSYGRPPPDVEGMTSLKVDNLTYRTSPDTLRRVFEKYGRVGDVYIPRDRYTKESRGFAFVRFHDKRDAEDAMDAMDGAVLDGRELRVQMARYGRPPDSHHSRRGPPPRRYGGGGYGRRSRSPRRRRRSRSRSRSRSRSRSRSRYSRSKSRSRTRSRSRSTSKSRSARRSKSKSSSVSRSRSRSRSRSRSRSPPPVSKRESKSRSRSKSPPKSPEEEGAVSS
B2: CCCTC-binding factor (CTCF) (protein, UniProt P49711 1-727)
chain: T1 sequence

How the values were obtained:
[1] = biological target: T1, CCCTC-binding factor (CTCF) (human (endogenous in HMECs)); test: co-IP; as the co-IP of untreated HMECs, but from H2O2-treated (stressed) HMECs; CTCF IP, Western blot for SC-35
[2] = biological target: hnRNP-K (human (endogenous in HMECs)) (UniProt P61978); test: co-IP; endogenous proteins of HMEC whole cell extract (lysis buffer with 420 mM NaCl, diluted 6X with IP buffer: 20 mM Tris HCl pH 7.5, 50 mM NaCl, 10 mM MgCl2, 2 mM EDTA, 0.5% Triton-X-100); protein-G Sepharose beads, 4°C; Western blot; untreated cells
[3] = biological target: T1, CCCTC-binding factor (CTCF) (human (endogenous in HMECs)); test: as above

| Binder | binding [1] | binding [2] | binding [3] |
| --- | --- | --- | --- |
| B1 | no binding (condition: H2O2-treated cells) | binds | binds |
| B2 |  | binds weakly |  |
